# Binding screen against folded nucleic acids

Targets, with sequences 5′ to 3′:
SAM-II: SAM-II riboswitch RNA pseudoknot, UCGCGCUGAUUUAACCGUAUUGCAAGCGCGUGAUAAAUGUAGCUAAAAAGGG. About 21,000 compounds screened, about 200 hits.
TPP: TPP riboswitch RNA three-way junction, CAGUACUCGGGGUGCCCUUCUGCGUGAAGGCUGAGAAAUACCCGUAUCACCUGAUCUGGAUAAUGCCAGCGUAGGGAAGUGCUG. About 24,000 compounds screened, about 160 hits.
PreQ1: PreQ1 riboswitch RNA pseudoknot, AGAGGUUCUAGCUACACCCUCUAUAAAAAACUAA. From B. subtilis. About 24,000 compounds screened, about 170 hits.

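Compounds were printed on reactive glass slides in duplicate spots, a dye-labelled oligonucleotide was laid over them, and the fluorescence left after washing was read. For the PreQ1, TPP and SAM-II riboswitches the laboratory earlier reported (doi:10.1038/s41467-019-09493-3) 1 µM RNA, 2 h, and a rule that included a mean Z-score above 3 (spot signal-to-noise against the whole library), a score well above that on a control array, and duplicate spots agreeing (coefficient of variation under 100). The data file gives only the calls; its cut-offs may differ, and compounds hitting several targets are kept. The calls come from the array alone, and fixing a compound to the slide can hide its binding.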 Key: 1 = hit, 0 = tested without a hit. Compounds were drawn at random from those tested, without regard to their results. A target missing from an entry has no call listed here. A dash means that no call is listed here.

compound,SAM-II,TPP,PreQ1
Cc1nnc2c(Nc3ccc(N(C)C)cc3)nc3ccccc3n12,-,0,0
CCOC(=O)Nc1ccc2nc(N3CCCCCC3)sc2c1,0,0,0
Cn1c(N)c(C(=O)/C=C/c2ccccc2)c(=O)[nH]c1=O,0,0,0
O=c1cc(NCCc2c[nH]c3ccccc23)c2ccccc2o1,0,0,0
COC(=O)c1ccc(NC2CCCCC2NS(=O)(=O)c2ccc(C)cc2)cc1 (stereo not drawn),-,0,0
COc1ccc(Nc2nc3c([nH]2)c(=O)n(C)c(=O)n3C)cc1,0,0,0
C=CCNc1nc(-c2ccc(Cl)cc2)cs1,0,0,0
COc1cc(C2C(C#N)=C(N)Oc3n[nH]c(C(C)C)c32)cc2c1OCO2 (stereo not drawn),0,0,0
O=c1cc(CO)oc(C(Nc2ccccn2)c2ccccc2F)c1O (stereo not drawn),0,0,0
CN(C)C[C@H]1C[C@@H](CO)CN(C(=O)C2(C(N)=O)CC2)C1,0,0,0
COc1ccc(C2C(C#N)=C(N)OC3=C2S(=O)(=O)N(Cc2cccc(C)c2)c2ccccc23)cc1 (stereo not drawn),-,0,0
COCc1nc2ccccc2n1CC(O)COc1ccc(C)cc1 (stereo not drawn),-,0,0
Cc1ccc(OC2(C(=O)O)CCN(C[C@H]3CC[C@@H](N)CC3)CC2)cn1,0,0,0
CC1CC(Nc2ccccc2)c2ccccc2N1C(=O)c1ccccc1Cl (stereo not drawn),0,0,0
Nc1ncn([C@@H]2O[C@H](CO)[C@@H](O)[C@@H]2O)c(=O)n1,0,0,0
O=C(O)c1cccnc1Nc1cccc(C(F)(F)F)c1,0,0,0
CC(=O)c1ccc(NC2c3ccccc3C(=O)N2Cc2ccccc2Cl)cc1 (stereo not drawn),0,0,0
COc1ccc(C2C(C#N)=C(N)OC3=C2S(=O)(=O)N(Cc2ccccc2C)c2ccccc23)cc1 (stereo not drawn),-,0,0
O=c1c2c3c(sc2ncn1CCCc1nnc2ccccn12)CNCC3,0,0,0
O=C(CCNC(=O)[C@]12CNC[C@H]1CNC2)Nc1cc(F)ccc1F,0,0,0
O=C(c1ccc2nccnc2c1)N1CCN(c2ccncc2)CC(O)C1 (stereo not drawn),0,0,0
CCSc1nc(=O)c(C)c(C)[nH]1,0,0,0
Cc1ccc(Nc2cc(N3CCN(C(=O)c4ccccc4Br)CC3)nc(C)n2)cc1,-,0,0
OC[C@H]1CN(CC(c2ccccc2)c2ccccc2)C[C@H]1CN1CCOCC1,0,0,0
O=c1cc(CO)oc(CN2CCOCC2)c1O,0,0,0
CC(C)(C)OC(=O)N1CC(O)CC1C(=O)OCC(=O)c1ccc(-c2ccccc2)cc1 (stereo not drawn),0,0,0
CCOC(=O)CN1CCCC2(CCNC2)C1 (stereo not drawn),0,0,0
Cn1c2c(c(=O)n(C)c1=O)C(c1ccc(F)cc1)C(C#N)=C(N)O2 (stereo not drawn),0,0,0
Cn1ccnc1C(O)c1ccccc1 (stereo not drawn),0,0,0
Nc1ccc(N2CCCC2=O)cc1,0,0,0
Cc1ccccc1-n1cc(-c2ccccc2)c2c(NC3CC3)ncnc21,-,0,0
CCC(C)c1ccccc1OCC(O)CN1CC(C)OC(C)C1 (stereo not drawn),0,0,0
c1ccc2c(CCNCc3ccc4c(c3)OCO4)c[nH]c2c1,0,0,1
Cc1ncsc1CCN(C)c1nc(N(C)C)nc2c1CCNC2,0,0,0
COc1c(N2CCNC(C)C2)c(F)cc2c(=O)c(C(=O)O)cn(C3CC3)c12 (stereo not drawn),0,0,0
CCOC(=O)c1cnn(-c2nc(CC)nc3sc4c(c23)CCC4)c1N,0,0,0
CNc1n[nH]c(N)c1-c1nc(-c2ccc(OC)cc2)no1,0,0,0
CSc1ccccc1C(=O)N1C[C@H](CO)C[C@H](CN2CCOCC2)C1,0,0,0
Cc1ccsc1C1C(C#N)=C(N)Oc2c1c(=O)oc1ccccc21 (stereo not drawn),0,0,0
O=c1[nH]c(=O)n([C@H]2C[C@@H](O)[C@@H](CO)O2)cc1C(F)(F)F,0,0,0
CN(Cc1cnc(N)nc1)Cc1cn(-c2ccccc2)nn1,0,0,0
Cc1cc(Nc2ccc(Cl)cc2)n2nc(-c3ccccc3)nc2n1,-,0,0
O=C(NCc1ccc(F)cc1)c1nn(-c2ccccc2)nc1CO,-,0,0
CCCc1cc(=O)[nH]c(=S)[nH]1,0,0,0
CC(C)c1nc(CN2CCC(C(O)c3nccn3C)CC2)co1 (stereo not drawn),0,0,0
O=C(c1ccc2c(c1)ncn2CCO)N1CCCCC1CCn1ccnc1 (stereo not drawn),0,0,0
Cc1cc2c(C(C)C)c(O)c(O)c(C=O)c2c(O)c1-c1c(C)cc2c(C(C)C)c(O)c(O)c(C=O)c2c1O,0,0,0
O=C(NC1Cc2ccccc2C1)c1ccc(C2CCCNC2)cc1 (stereo not drawn),0,0,0
O=C(C1c2ccccc2-c2ccccc21)N1CC[C@H]2NCCC[C@]2(CO)C1,0,0,0

The first 3 entries again:

* Cc1nnc2c(Nc3ccc(N(C)C)cc3)nc3ccccc3n12 | TPP: 0; PreQ1: 0
* CCOC(=O)Nc1ccc2nc(N3CCCCCC3)sc2c1 | SAM-II: 0; TPP: 0; PreQ1: 0
* Cn1c(N)c(C(=O)/C=C/c2ccccc2)c(=O)[nH]c1=O | SAM-II: 0; TPP: 0; PreQ1: 0

Calls as published in the ROBIN set (doi:10.1002/anie.202211358).